Measured values from the supplement of paper PMC10849652.
The other results are listed elsewhere or left out.

Sequences of proteins named here, by UniProt entry; tags and fusion partners are left off. A change or cut given only in a name is not applied to a line headed by its entry.
UniProt P30305: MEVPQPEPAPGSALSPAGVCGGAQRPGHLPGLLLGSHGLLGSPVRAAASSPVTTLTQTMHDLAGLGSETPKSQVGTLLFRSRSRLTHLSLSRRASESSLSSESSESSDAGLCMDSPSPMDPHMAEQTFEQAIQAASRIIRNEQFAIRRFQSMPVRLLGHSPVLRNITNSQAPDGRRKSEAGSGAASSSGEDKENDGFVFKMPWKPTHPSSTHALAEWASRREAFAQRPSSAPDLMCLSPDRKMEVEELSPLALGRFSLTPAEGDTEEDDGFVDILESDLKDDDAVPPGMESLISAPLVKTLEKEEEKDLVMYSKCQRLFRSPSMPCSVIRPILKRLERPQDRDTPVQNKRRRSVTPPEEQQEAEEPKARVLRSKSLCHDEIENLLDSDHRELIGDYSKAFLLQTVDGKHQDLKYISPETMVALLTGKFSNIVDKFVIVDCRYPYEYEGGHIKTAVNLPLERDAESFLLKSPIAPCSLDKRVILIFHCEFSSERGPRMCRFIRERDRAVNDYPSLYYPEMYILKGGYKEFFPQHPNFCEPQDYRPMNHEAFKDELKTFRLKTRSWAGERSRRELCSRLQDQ
UniProt P21926: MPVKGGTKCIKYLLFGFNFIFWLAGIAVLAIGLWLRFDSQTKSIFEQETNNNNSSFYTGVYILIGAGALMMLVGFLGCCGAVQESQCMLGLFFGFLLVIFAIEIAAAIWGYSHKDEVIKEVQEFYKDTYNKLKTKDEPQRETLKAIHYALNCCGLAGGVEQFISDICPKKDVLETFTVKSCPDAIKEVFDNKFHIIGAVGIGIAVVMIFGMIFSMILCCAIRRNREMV
UniProt Q8ND76: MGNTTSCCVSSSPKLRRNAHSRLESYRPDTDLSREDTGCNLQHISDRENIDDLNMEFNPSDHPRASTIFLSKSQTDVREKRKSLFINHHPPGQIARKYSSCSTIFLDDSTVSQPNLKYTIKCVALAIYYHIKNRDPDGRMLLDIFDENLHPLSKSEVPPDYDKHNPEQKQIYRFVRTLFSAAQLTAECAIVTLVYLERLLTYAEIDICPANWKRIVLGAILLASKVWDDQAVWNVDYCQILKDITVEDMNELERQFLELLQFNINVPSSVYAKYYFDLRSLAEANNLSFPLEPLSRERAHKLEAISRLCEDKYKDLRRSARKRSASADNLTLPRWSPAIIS
UniProt Q5ZPR3: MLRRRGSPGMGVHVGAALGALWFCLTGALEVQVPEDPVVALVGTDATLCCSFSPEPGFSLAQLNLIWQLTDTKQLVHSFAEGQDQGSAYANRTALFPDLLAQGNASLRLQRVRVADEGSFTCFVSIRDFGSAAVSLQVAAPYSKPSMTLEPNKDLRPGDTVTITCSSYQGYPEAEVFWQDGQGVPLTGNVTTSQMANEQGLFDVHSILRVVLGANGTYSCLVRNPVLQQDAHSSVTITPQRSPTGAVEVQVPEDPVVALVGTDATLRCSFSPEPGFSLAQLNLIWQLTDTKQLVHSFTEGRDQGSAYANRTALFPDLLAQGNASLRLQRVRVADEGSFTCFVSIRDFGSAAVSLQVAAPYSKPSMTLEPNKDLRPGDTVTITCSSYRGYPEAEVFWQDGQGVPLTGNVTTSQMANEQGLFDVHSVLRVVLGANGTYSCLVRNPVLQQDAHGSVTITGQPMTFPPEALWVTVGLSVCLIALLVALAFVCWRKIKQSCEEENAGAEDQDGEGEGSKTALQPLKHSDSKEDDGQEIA
UniProt Q4G0I0: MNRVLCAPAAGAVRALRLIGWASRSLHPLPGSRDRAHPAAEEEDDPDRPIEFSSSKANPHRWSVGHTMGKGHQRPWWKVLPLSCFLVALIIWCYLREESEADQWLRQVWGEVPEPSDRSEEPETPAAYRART
UniProt Q9BWV3: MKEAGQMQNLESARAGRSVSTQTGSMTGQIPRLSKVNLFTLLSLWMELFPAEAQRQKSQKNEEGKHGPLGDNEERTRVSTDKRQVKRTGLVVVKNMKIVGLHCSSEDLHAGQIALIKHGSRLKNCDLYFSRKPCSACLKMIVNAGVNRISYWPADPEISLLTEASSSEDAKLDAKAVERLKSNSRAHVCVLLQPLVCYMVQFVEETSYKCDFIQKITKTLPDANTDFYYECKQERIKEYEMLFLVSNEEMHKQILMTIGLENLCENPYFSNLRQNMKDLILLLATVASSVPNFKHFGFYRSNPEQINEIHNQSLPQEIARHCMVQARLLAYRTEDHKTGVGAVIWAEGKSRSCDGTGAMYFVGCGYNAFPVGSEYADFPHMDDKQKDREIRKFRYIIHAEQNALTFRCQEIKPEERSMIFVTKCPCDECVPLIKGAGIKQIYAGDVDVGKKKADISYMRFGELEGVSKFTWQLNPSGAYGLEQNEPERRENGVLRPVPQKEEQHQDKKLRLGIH
UniProt O96020, whole entry, looked up: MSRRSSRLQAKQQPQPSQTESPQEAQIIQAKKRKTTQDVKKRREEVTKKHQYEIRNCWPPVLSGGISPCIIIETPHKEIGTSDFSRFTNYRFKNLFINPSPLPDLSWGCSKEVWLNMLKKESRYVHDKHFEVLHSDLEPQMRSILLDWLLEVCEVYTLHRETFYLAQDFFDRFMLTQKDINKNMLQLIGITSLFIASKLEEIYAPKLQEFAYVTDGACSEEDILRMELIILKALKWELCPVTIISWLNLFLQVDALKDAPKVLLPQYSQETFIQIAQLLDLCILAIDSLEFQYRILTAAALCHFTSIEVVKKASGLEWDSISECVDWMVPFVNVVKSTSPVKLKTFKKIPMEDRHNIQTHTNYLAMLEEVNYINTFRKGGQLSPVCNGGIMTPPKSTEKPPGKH
UniProt Q75N03: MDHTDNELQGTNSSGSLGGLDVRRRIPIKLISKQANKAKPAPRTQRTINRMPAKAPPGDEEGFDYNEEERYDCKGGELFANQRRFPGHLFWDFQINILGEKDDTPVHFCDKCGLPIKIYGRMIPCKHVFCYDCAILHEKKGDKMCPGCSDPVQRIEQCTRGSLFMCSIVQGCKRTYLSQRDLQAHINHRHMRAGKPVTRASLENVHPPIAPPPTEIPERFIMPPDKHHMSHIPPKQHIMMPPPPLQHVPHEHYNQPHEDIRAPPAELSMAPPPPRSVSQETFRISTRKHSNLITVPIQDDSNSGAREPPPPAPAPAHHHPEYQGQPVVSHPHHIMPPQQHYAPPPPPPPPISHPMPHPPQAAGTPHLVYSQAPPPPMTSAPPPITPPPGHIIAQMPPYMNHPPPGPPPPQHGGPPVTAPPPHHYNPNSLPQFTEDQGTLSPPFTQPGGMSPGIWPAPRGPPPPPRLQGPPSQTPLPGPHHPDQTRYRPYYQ
UniProt Q14790: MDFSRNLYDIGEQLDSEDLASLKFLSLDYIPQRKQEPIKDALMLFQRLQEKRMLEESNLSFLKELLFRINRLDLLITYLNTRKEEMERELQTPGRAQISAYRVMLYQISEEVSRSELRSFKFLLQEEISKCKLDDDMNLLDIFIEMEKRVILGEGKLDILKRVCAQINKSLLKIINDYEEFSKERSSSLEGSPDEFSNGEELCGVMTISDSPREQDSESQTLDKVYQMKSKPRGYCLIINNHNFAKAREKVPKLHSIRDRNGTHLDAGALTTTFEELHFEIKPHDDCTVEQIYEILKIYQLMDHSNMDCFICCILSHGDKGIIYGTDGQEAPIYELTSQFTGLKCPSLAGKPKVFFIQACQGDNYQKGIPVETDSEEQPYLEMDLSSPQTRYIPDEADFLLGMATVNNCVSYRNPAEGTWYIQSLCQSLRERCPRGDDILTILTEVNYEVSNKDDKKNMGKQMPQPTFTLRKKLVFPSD
UniProt Q9BSQ5: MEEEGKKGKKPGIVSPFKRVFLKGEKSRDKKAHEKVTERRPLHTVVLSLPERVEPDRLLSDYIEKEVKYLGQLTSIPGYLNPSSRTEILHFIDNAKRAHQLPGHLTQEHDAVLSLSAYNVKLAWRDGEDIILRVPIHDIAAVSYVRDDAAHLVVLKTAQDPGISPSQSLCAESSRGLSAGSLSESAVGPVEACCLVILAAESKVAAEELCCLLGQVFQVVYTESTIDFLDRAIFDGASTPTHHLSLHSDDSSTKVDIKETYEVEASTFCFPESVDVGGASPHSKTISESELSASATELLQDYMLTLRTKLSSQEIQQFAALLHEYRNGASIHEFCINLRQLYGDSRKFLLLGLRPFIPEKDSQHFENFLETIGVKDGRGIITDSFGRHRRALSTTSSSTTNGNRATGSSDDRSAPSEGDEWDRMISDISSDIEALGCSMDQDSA
UniProt P55211: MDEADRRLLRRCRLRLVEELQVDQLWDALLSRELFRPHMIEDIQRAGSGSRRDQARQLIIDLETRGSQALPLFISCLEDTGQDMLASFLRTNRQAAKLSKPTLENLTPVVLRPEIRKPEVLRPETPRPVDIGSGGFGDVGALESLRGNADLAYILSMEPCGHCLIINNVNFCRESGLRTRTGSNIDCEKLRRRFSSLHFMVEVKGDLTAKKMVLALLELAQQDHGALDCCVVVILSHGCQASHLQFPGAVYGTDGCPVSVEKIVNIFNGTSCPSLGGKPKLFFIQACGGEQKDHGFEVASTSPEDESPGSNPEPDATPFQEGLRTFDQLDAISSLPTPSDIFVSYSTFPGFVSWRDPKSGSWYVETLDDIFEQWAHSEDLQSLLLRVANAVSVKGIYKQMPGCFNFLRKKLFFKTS
UniProt Q96F63: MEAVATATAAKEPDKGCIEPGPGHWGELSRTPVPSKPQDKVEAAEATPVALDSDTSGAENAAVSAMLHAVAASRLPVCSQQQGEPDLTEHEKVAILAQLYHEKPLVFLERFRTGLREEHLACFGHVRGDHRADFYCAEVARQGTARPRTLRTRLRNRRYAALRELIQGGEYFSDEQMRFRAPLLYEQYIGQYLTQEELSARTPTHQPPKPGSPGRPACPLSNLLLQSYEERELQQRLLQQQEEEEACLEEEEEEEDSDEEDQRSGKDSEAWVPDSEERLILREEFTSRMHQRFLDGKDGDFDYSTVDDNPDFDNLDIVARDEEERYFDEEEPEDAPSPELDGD

How the values were obtained:
Experiment in all cases: log2 fold change, soluble protein after heating vs DMSO (PISA); higher = thermal stabilisation; K562 cells, 10 uM, 30 min; active = over 0.2 and 3.5 SD of the protein, either way, in both replicates (recomputed)
[1] = compound: COC1=CC=C(C=C1)CN2C=CC3=C2C=C(C=C3)C(=O)NO
Procedure, shortened: (§1)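 For each measurement, 10 μM compound was applied for 30 min to K562 cells at 2×10^6 cells/mL. Aliquots were heated for 3 min across 48°C-58°C, pooled, and extracted in PBS with 0.5% NP-40 at 4°C; the supernatant after 21,000xg for 90 min was soluble protein. This was quantified by TMTpro 16plex LC-MS/MS with channel sums equalised, and thermal stability was reported relative to control samples from duplicates, on a log2 fold-change scale.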

filanesib = compound: CON(C)C(=O)N1N=C(c2cc(F)ccc2F)S[C@@]1(CCCN)c1ccccc1 [filanesib]
Procedure, shortened: as §1

zotarolimus = compound: CO[C@H]1C[C@@H]2CC[C@@H](C)[C@@](O)(O2)C(=O)C(=O)N2CCCC[C@H]2C(=O)O[C@H]([C@H](C)C[C@@H]2CC[C@H](n3cnnn3)[C@H](OC)C2)CC(=O)[C@H](C)/C=C(\C)[C@@H](O)[C@@H](OC)C(=O)[C@H](C)C[C@H](C)/C=C/C=C/C=C/1C [zotarolimus]
Procedure, shortened: as §1

idasanutlin = compound: COc1cc(C(=O)O)ccc1NC(=O)[C@@H]1N[C@@H](CC(C)(C)C)[C@](C#N)(c2ccc(Cl)cc2F)[C@H]1c1cccc(Cl)c1F [idasanutlin]
Procedure, shortened: as §1

alisertib = compound: COc1cc(Nc2ncc3c(n2)-c2ccc(Cl)cc2C(c2c(F)cccc2OC)=NC3)ccc1C(=O)O [alisertib]
Procedure, shortened: as §1

[2] = compound: COc1cc2nc(-c3cc(F)ccc3O)nc(N[C@@H]3CNC[C@H]3C(C)(C)O)c2cc1OC
Procedure, shortened: as §1

gefitinib = compound: COc1cc2ncnc(Nc3ccc(F)c(Cl)c3)c2cc1OCCCN1CCOCC1 [gefitinib]
Procedure, shortened: as §1

[3] = compound: COc1cccc2cc(-c3nc([C@H]4CC[C@H](C(=O)O)CC4)n4ncnc(N)c34)[nH]c12
Procedure, shortened: as §1

lapatinib = compound: CS(=O)(=O)CCNCc1ccc(-c2ccc3ncnc(Nc4ccc(OCc5cccc(F)c5)c(Cl)c4)c3c2)o1 [lapatinib]
Procedure, shortened: as §1

pictilisib = compound: CS(=O)(=O)N1CCN(Cc2cc3nc(-c4cccc5[nH]ncc45)nc(N4CCOCC4)c3s2)CC1 [pictilisib]
Procedure, shortened: as §1

[4] = compound: CS(=O)(=O)c1ccc(-c2cnc(N)c(C(=O)Nc3ccccc3)n2)cc1
Procedure, shortened: as §1

[5] = compound: C[C@@H]1COCCN1C2=NC(=NC(=C2)C3(CC3)S(=O)(=O)C)C4=C5C=CNC5=CC=C4
Procedure, shortened: as §1

[6] = compound: C[C@H](C1=CC=C(C=C1)C(=O)NC2=C3C=CNC3=NC=C2)N
Procedure, shortened: as §1

gandotinib = compound: Cc1cc(Nc2cc(CN3CCOCC3)c3nc(C)c(Cc4ccc(Cl)cc4F)n3n2)n[nH]1 [gandotinib]
Procedure, shortened: as §1

doramapimod = compound: Cc1ccc(-n2nc(C(C)(C)C)cc2NC(=O)Nc2ccc(OCCN3CCOCC3)c3ccccc23)cc1 [doramapimod]
Procedure, shortened: as §1

ispinesib = compound: Cc1ccc(C(=O)N(CCCN)[C@@H](c2nc3cc(Cl)ccc3c(=O)n2Cc2ccccc2)C(C)C)cc1 [ispinesib]
Procedure, shortened: as §1

crizotinib = compound: C[C@@H](Oc1cc(-c2cnn(C3CCNCC3)c2)cnc1N)c1c(Cl)ccc(F)c1Cl [crizotinib]
Procedure, shortened: as §1

duvelisib = compound: C[C@H](Nc1ncnc2nc[nH]c12)c1cc2cccc(Cl)c2c(=O)n1-c1ccccc1 [duvelisib]
Procedure, shortened: as §1

tozasertib = compound: Cc1cc(Nc2cc(N3CCN(C)CC3)nc(Sc3ccc(NC(=O)C4CC4)cc3)n2)n[nH]1 [tozasertib]
Procedure, shortened: as §1

[7] = compound: Cc1cc(SCc2sc(-c3ccc(C(F)(F)F)cc3)nc2C)ccc1OCC(=O)O
Procedure, shortened: as §1

Measured: log2 fold change

CDC25B isoform 4 (UniProt P30305)
inactive: [1] -0.038 | filanesib 0.005 | zotarolimus -0.056 | idasanutlin 0.052 | alisertib -0.018 | [2] 0.026 | gefitinib -0.013 | [3] 0.068 | lapatinib -0.012 | pictilisib 0.03 | [4] -0.104 | [5] -0.216 | [6] -0.057 | gandotinib 0.122 | doramapimod 0.132 | ispinesib 0.019

CD9 (UniProt P21926)
inactive: [1] 0.059 | filanesib -0.021 | zotarolimus -0.08 | idasanutlin 0.004 | pictilisib 0.07 | [4] 0.069 | crizotinib 0 | [5] 0.085 | [6] -0.233 | duvelisib 0.121 | gandotinib -0.053 | tozasertib -0.012 | [7] 0.029 | doramapimod -0.204

CCNY (UniProt Q8ND76)
inactive: [1] -0.056 | filanesib -0.4 | zotarolimus -0.235 | idasanutlin 0.119 | [2] 0.085 | gefitinib 0.242 | lapatinib 0.033 | pictilisib 0.091 | [4] 0.253 | crizotinib 0.09 | [5] 0.037 | [6] 0.017 | duvelisib -0.116 | gandotinib -0.137 | tozasertib -0.126 | [7] 0.053 | doramapimod 0.054 | ispinesib -0.132

CD276 (UniProt Q5ZPR3)
inactive: [1] -0.27 | pictilisib 0.088 | crizotinib 0.151 | gandotinib -0.12 | doramapimod 0.02

CCSMST1 (UniProt Q4G0I0)
inactive: [1] -0.071 | filanesib -0.015 | zotarolimus -0.066 | idasanutlin -0.049 | alisertib -0.08 | [2] -0.159 | gefitinib 0.014 | [3] 0.031 | lapatinib 0.018 | [4] -0.007 | crizotinib 0.127 | [5] 0.221 | [6] 0.002 | duvelisib 0.078 | tozasertib 0.017 | [7] -0.114 | doramapimod -0.002 | ispinesib -0.027

CDADC1 (UniProt Q9BWV3)
inactive: [1] 0.149 | crizotinib 0.147 | doramapimod -0.04

CCNE2 (UniProt O96020)
inactive: [1] 0.175 | crizotinib -0.305 | duvelisib 0.068 | [7] -0.039 | doramapimod -0.027

Reprinted from above (two entries):
CCNY (UniProt Q8ND76)
inactive: [1] -0.056 | filanesib -0.4 | zotarolimus -0.235 | idasanutlin 0.119 | [2] 0.085 | gefitinib 0.242 | lapatinib 0.033 | pictilisib 0.091 | [4] 0.253 | crizotinib 0.09 | [5] 0.037 | [6] 0.017 | duvelisib -0.116 | gandotinib -0.137 | tozasertib -0.126 | [7] 0.053 | doramapimod 0.054 | ispinesib -0.132

CD276 (UniProt Q5ZPR3)
inactive: [1] -0.27 | pictilisib 0.088 | crizotinib 0.151 | gandotinib -0.12 | doramapimod 0.02

(cont.)

CBLL1 (UniProt Q75N03)
inactive: [1] -0.08 | filanesib -0.028 | zotarolimus -0.03 | idasanutlin 0.071 | [2] 0.129 | gefitinib -0.41 | lapatinib 0.067 | [4] -0.026 | crizotinib -0.039 | [6] 0.067 | duvelisib -0.184 | tozasertib -0.021 | [7] 0.123 | doramapimod 0.005 | ispinesib 0.114

CASP8 isoform 9 (UniProt Q14790)
inactive: [1] -0.087 | filanesib -0.017 | idasanutlin -0.086 | alisertib -0.107 | [2] 0.023 | gefitinib -0.153 | [3] 0.044 | lapatinib -0.028 | pictilisib 0.127 | [4] 0.007 | crizotinib -0.02 | [5] -0.013 | gandotinib -0.07 | [7] -0.007 | doramapimod 0.072 | ispinesib -0.151

CCM2 isoform 2 (UniProt Q9BSQ5)
inactive: [1] -0.093 | filanesib 0.026 | zotarolimus 0.057 | alisertib -0.04 | [2] 0.154 | [3] 0.056 | lapatinib 0.006 | pictilisib 0.022 | [4] 0.088 | crizotinib -0.022 | [5] -0.016 | [6] 0.003 | gandotinib 0.026 | [7] -0.067 | doramapimod 0.013 | ispinesib -0.043

CASP9 (UniProt P55211)
inactive: [1] 0.095 | filanesib 0.169 | zotarolimus -0.043 | idasanutlin -0.008 | [2] 0.02 | gefitinib 0.146 | lapatinib -0.034 | pictilisib -0.019 | [4] 0.088 | crizotinib 0.002 | [5] 0.014 | [6] 0.014 | gandotinib -0.152 | [7] 0.064 | doramapimod 0.05 | ispinesib 0.037

CCDC97 (UniProt Q96F63)
inactive: [1] 0.031 | filanesib -0.015 | zotarolimus 0.12 | idasanutlin 0.045 | alisertib -0.285 | [2] -0.063 | gefitinib 0.062 | [3] 0.009 | lapatinib 0.031 | [4] -0.039 | crizotinib -0.038 | [5] -0.017 | [6] 0.061 | duvelisib 0.034 | tozasertib -0.008 | [7] 0.056 | doramapimod -0.002 | ispinesib -0.041
